What all share (experiment): log2 fold change of tryptic peptide abundance, ligand vs vehicle (limited proteolysis) (log2 ratio); higher = more trypsin-susceptible (destabilized)
For assay [1], the target named is UniProt P0ABF6. The note with it: peptide sequence: SPSGVALECK; peptide start residue: 209; ligand concentration: 5 mM; sample: E. coli desalted lysate; replicate design: treated before aliquoting. How it is done:
(§1)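 HT-PELSA: desalted E. coli K-12 BW25113 lysate (with 12 mM MgCl2) incubated with 5 mM ATP (pH 7) or water for 30 min at 25 C, then a 4 min trypsin pulse at 22 C. Peptides were quantified by DIA-MS (4 replicates). Value is the peptide log2 fold change (treated/control); negative = stabilized. Scale: negative = ligand-stabilized region.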

Chains of the proteins cited; added tags and fusions are not shown. Lines headed by an entry give the natural chain unless they say otherwise; changes in a name come on top.
UniProt P0ABF6: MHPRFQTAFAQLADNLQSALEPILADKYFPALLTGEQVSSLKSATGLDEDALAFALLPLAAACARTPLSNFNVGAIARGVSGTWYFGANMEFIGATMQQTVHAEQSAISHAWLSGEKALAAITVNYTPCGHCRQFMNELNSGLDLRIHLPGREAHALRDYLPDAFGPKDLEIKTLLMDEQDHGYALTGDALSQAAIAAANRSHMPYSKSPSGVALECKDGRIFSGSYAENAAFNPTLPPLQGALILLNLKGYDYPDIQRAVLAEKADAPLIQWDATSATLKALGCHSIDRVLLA
UniProt P0ABL3: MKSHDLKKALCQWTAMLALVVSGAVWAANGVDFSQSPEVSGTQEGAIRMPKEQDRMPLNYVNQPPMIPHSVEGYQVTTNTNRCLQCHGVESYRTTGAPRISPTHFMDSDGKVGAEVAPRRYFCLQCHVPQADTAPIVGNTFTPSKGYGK
UniProt P0ABR5: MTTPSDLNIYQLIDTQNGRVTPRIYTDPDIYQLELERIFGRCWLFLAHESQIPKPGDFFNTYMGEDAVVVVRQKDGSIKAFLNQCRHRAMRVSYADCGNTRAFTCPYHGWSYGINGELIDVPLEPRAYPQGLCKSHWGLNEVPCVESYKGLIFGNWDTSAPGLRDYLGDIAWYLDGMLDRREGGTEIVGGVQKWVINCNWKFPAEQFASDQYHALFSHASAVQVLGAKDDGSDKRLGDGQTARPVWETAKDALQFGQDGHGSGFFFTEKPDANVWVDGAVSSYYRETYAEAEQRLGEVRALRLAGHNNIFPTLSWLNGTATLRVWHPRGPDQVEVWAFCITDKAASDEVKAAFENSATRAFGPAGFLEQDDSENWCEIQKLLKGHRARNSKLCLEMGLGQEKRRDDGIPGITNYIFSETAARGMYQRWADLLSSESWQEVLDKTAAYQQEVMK
UniProt P0ABU5: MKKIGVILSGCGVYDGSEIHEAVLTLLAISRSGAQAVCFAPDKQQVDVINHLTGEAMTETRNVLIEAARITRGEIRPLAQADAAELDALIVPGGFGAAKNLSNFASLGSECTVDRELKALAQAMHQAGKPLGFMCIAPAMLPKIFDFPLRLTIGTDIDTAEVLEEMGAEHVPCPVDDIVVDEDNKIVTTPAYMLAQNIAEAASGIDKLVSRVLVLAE
UniProt P0ABZ4: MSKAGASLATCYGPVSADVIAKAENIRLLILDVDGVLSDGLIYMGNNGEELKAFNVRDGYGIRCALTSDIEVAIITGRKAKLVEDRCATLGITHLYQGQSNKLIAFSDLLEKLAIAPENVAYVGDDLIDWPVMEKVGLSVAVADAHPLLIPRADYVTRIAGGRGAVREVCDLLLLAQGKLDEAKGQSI
UniProt P0AC51: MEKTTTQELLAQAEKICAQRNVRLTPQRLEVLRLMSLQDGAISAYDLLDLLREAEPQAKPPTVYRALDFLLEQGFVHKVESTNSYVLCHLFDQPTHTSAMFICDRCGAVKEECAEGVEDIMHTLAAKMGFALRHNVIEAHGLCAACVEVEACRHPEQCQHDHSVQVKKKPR
UniProt P0ACK2: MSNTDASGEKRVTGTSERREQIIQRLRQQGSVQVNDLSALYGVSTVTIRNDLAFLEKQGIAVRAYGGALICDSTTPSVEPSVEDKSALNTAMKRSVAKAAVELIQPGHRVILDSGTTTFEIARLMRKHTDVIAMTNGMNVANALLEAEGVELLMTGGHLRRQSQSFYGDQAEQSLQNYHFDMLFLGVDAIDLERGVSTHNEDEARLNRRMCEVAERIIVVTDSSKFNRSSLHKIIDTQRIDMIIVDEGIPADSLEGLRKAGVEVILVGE
UniProt P0ACK8: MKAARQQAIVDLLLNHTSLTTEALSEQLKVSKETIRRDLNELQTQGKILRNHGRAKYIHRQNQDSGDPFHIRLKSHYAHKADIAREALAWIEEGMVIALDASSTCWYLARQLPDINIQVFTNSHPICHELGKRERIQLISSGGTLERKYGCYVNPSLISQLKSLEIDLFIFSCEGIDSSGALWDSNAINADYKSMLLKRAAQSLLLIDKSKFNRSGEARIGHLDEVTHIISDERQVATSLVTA
UniProt P0ACL7: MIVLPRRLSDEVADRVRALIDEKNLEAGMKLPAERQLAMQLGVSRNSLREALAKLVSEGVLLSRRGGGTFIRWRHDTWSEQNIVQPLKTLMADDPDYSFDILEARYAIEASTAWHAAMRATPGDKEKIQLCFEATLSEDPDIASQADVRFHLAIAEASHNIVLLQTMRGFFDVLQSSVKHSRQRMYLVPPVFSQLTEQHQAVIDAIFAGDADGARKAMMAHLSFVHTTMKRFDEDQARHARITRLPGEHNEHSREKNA
UniProt P0ACM2: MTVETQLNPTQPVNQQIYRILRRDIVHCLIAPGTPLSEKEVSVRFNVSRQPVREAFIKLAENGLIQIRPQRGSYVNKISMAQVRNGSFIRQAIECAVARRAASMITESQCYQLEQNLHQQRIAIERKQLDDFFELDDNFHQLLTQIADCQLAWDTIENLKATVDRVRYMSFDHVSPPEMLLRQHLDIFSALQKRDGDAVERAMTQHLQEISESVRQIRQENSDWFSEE
UniProt P0ACR7: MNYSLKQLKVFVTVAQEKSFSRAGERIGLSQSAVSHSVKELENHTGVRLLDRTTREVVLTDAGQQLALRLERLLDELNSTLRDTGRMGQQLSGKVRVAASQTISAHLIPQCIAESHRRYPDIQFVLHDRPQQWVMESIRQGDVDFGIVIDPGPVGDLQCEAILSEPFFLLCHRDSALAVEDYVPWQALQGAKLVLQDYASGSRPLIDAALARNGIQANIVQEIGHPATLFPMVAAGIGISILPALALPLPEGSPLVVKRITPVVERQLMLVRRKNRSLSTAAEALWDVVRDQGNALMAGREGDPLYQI
UniProt P0ACU5: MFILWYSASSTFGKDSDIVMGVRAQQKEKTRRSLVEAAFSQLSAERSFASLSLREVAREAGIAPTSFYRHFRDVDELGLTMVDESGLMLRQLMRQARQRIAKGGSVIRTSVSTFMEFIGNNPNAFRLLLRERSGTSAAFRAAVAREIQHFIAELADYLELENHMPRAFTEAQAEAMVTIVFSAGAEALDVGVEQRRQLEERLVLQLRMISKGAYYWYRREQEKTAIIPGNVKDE
UniProt P0ACV2: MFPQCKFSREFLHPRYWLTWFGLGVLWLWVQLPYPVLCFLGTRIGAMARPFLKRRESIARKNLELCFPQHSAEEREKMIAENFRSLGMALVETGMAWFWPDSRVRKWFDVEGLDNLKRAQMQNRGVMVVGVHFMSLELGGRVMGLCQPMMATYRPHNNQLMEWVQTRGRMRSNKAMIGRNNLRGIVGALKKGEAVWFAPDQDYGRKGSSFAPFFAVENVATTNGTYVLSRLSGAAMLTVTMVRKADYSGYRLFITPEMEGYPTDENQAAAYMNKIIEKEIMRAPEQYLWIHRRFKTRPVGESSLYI
UniProt P0ACV4: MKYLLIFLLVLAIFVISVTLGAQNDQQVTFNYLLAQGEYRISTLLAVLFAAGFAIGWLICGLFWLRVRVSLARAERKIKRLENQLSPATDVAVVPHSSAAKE
UniProt P0AD42: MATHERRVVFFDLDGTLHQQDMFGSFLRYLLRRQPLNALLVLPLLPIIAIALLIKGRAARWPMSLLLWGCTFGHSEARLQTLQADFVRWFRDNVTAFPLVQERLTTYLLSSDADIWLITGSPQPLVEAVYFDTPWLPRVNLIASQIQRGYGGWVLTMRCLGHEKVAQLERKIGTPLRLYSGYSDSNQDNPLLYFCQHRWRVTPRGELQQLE
UniProt P0AD44: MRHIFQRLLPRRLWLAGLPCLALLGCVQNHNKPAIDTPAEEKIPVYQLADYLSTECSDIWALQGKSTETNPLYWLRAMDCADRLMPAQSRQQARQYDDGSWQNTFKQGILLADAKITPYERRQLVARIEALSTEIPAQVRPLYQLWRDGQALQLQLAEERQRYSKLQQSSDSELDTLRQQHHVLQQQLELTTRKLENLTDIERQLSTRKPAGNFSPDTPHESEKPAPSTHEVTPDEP
UniProt P0ADJ3: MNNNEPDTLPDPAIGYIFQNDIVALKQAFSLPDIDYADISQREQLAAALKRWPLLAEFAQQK
UniProt P0ADX7: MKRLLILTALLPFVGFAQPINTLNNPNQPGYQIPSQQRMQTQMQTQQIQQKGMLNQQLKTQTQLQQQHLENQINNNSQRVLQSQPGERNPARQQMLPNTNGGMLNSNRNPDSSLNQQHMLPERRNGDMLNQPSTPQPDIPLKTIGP
UniProt P0AE28: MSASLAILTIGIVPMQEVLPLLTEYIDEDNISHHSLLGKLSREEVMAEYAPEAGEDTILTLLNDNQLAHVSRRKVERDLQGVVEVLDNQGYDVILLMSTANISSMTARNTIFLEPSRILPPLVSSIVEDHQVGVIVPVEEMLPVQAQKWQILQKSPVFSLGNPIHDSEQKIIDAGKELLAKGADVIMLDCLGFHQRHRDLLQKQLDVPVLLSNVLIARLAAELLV
UniProt P0AE58: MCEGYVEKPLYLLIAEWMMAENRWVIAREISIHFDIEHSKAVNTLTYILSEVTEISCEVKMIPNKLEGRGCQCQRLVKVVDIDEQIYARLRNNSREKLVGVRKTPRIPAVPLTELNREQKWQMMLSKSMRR
UniProt P0AED5: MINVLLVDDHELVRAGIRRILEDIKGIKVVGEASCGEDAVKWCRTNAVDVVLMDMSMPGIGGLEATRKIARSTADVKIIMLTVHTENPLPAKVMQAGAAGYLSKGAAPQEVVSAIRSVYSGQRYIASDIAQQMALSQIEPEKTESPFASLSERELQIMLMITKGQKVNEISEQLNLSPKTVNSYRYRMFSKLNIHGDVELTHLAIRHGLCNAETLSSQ
UniProt P0AEG4: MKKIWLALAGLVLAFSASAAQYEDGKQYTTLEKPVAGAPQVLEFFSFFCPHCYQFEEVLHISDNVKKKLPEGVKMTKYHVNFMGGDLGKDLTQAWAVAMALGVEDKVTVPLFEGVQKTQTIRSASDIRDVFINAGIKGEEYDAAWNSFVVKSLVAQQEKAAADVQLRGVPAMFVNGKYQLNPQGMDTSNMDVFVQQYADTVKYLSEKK
UniProt P0AEM4: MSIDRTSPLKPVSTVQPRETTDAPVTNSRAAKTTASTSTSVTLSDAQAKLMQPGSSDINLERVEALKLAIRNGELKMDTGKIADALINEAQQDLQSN

Assay [2] has as its target UniProt P0ABL3. The note with it: peptide sequence: ISPTHFMDSDGK; peptide start residue: 100; ligand concentration: 5 mM; sample: E. coli desalted lysate; replicate design: treated before aliquoting. How it is done: as §1
Assay [3] deals with UniProt P0ABR5. The note with it: peptide sequence: VSYADCGNTR; peptide start residue: 92; ligand concentration: 5 mM; sample: E. coli desalted lysate; replicate design: treated before aliquoting. The protocol:
as §1

Assay [4] deals with UniProt P0ABU5. The note with it: peptide sequence: IFDFPLR; peptide start residue: 144; ligand concentration: 5 mM; sample: E. coli desalted lysate; replicate design: treated before aliquoting. The protocol: as §1
Assay [5] concerns the target UniProt P0ABZ4. The note with it: peptide sequence: EVCDLLLLAQGK; peptide start residue: 168; ligand concentration: 5 mM; sample: E. coli desalted lysate; replicate design: treated before aliquoting. How it is done:
as §1

Assay [6] concerns the target UniProt P0AC51. The note with it: peptide sequence: EAEPQAKPPTVYR; peptide start residue: 53; ligand concentration: 5 mM; sample: E. coli desalted lysate; replicate design: treated before aliquoting. The protocol:
as §1

The target of assay [7] is UniProt P0ACD8. The note with it: peptide sequence: WRGNAMEVGPLAR; peptide start residue: 403; ligand concentration: 5 mM; sample: E. coli desalted lysate; replicate design: treated before aliquoting. The protocol: as §1
In assay [8] the target is UniProt P0ACK2. The note with it: peptide sequence: MCEVAER; peptide start residue: 210; ligand concentration: 5 mM; sample: E. coli desalted lysate; replicate design: treated before aliquoting. The protocol: as §1
In assay [9] the target is UniProt P0ACK8. The note with it: peptide sequence: KYGCYVNPSLISQLK; peptide start residue: 148; ligand concentration: 5 mM; sample: E. coli desalted lysate; replicate design: treated before aliquoting. The protocol: as §1
Assay [10] addresses UniProt P0ACL7. The note with it: peptide sequence: RLSDEVADR; peptide start residue: 7; ligand concentration: 5 mM; sample: E. coli desalted lysate; replicate design: treated before aliquoting. The protocol:
as §1

In assay [11] the target is UniProt P0ACM2. The note with it: peptide sequence: RDIVHCLIAPGTPLSEKEVSVR; peptide start residue: 23; ligand concentration: 5 mM; sample: E. coli desalted lysate; replicate design: treated before aliquoting. The protocol:
as §1

Assay [12] has as its target UniProt P0ACR7. The note with it: peptide sequence: VFVTVAQEK; peptide start residue: 10; ligand concentration: 5 mM; sample: E. coli desalted lysate; replicate design: treated before aliquoting. How it is done:
as §1

Assay [13] has as its target UniProt P0ACU5. The note with it: peptide sequence: SFASLSLR; peptide start residue: 47; ligand concentration: 5 mM; sample: E. coli desalted lysate; replicate design: treated before aliquoting. How it is done: as §1
For assay [14], the target named is UniProt P0ACV2. The note with it: peptide sequence: IGAMARPFLK; peptide start residue: 44; ligand concentration: 5 mM; sample: E. coli desalted lysate; replicate design: treated before aliquoting. How it is done:
as §1

The target in assay [15] is UniProt P0ACV4. The note with it: peptide sequence: RLENQLSPATDVAVVPHSSAAKE; peptide start residue: 80; ligand concentration: 5 mM; sample: E. coli desalted lysate; replicate design: treated before aliquoting. The protocol: as §1
Assay [16] has as its target UniProt P0AD42. The note with it: peptide sequence: VNLIASQIQR; peptide start residue: 139; ligand concentration: 5 mM; sample: E. coli desalted lysate; replicate design: treated before aliquoting. The protocol:
as §1

Assay [17] concerns the target UniProt P0AD44. The note with it: peptide sequence: QQHHVLQQQLELTTR; peptide start residue: 179; ligand concentration: 5 mM; sample: E. coli desalted lysate; replicate design: treated before aliquoting. The protocol: as §1
The target of assay [18] is UniProt P0ADJ3. The note with it: peptide sequence: EQLAAALKR; peptide start residue: 43; ligand concentration: 5 mM; sample: E. coli desalted lysate; replicate design: treated before aliquoting. How it is done:
as §1

Assay [19] has as its target UniProt P0ADX7. The note with it: peptide sequence: VLQSQPGERNPAR; peptide start residue: 80; ligand concentration: 5 mM; sample: E. coli desalted lysate; replicate design: treated before aliquoting. How it is done: as §1
In assay [20] the target is UniProt P0AE28. The note with it: peptide sequence: NTIFLEPSR; peptide start residue: 109; ligand concentration: 5 mM; sample: E. coli desalted lysate; replicate design: treated before aliquoting. How it is done:
as §1

Assay [21] has as its target UniProt P0AE58. The note with it: peptide sequence: IPAVPLTELNR; peptide start residue: 107; ligand concentration: 5 mM; sample: E. coli desalted lysate; replicate design: treated before aliquoting. The protocol:
as §1

Assay [22] addresses UniProt P0AED5. The note with it: peptide sequence: VVGEASCGEDAVKWCR; peptide start residue: 29; ligand concentration: 5 mM; sample: E. coli desalted lysate; replicate design: treated before aliquoting. How it is done: as §1
Assay [23] has as its target UniProt P0AEG4. The note with it: peptide sequence: SLVAQQEK; peptide start residue: 152; ligand concentration: 5 mM; sample: E. coli desalted lysate; replicate design: treated before aliquoting. How it is done:
as §1

The target in assay [24] is UniProt P0AEM4. The note with it: peptide sequence: ETTDAPVTNSR; peptide start residue: 19; ligand concentration: 5 mM; sample: E. coli desalted lysate; replicate design: treated before aliquoting. The protocol: as §1

The entries are a selection whose mix differs from that of the whole data set. Most values lie at the level of the controls, where differences are scatter.
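Further: lysate desalted by size exclusion to strip endogenous ATP, peptide intensities built from DIA-NN precursor signals, and peptides missing any value discarded before comparison.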

As for `Nc1ncnc2c1ncn2[C@@H]1O[C@H](COP(=O)(O)OP(=O)(O)OP(=O)(O)O)[C@@H](O)[C@H]1O` [adenosine 5'-triphosphate], the log2 fold change in assay [1] was 0.246; in assay [2], -0.157; in assay [3], -0.599; in assay [4] it was -0.08; in [5], 0.391; in assay [6], -0.154. Further, the log2 fold change in assay [7] turned out to be 0.892; in assay [8], 0.393; in assay [9] it was 0.372; in assay [10], 0.936; in assay [11] it was 0.435; in [12] it was 0.106. Also, the log2 fold change was 0.541 in assay [13]; 0.168 in assay [14]; -0.463 in [15]; -0.243 in [16]; -0.271 in assay [17]; -0.328 in assay [18]. For the same compound, the log2 fold change is 0.188 in [19]; -0.0534 in assay [20]; 0.136 in assay [21]; -0.297 in assay [22]; -0.147 in [23]; 0.0633 in assay [24].

The values are drawn from the supplement of paper PMC12819154, “High-throughput peptide-centric local stability assay extends protein–ligand identification to membrane proteins, tissues and bacteria” (Nature Structural & Molecular Biology, 2025).
